These are yes or no findings as the source states them, for the method shown. In cells and extracts the contact can be indirect. Some binding calls cover weakened binding; strength is not graded here. For some assays here: Tags and fused reporters may be left off the sequences shown.
T1: glutathione S-transferase (GST)-labeled VDBP protein (UniProt P21614)
T1 sequence: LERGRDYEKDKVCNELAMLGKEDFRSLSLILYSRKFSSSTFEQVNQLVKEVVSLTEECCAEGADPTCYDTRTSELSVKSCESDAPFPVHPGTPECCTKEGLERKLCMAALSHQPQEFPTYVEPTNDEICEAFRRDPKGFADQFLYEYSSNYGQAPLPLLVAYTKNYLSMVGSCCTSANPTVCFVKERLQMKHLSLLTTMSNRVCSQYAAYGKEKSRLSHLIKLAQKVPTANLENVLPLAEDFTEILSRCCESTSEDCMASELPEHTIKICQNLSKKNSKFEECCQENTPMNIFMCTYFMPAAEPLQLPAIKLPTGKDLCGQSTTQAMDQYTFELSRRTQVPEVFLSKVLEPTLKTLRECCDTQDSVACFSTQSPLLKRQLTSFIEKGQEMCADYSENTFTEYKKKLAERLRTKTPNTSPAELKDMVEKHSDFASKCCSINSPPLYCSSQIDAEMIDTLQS

Chains of the proteins cited; added tags and fusions are not shown. Residues count along the entry.
UniProt A2ARV4, residues 26-4660: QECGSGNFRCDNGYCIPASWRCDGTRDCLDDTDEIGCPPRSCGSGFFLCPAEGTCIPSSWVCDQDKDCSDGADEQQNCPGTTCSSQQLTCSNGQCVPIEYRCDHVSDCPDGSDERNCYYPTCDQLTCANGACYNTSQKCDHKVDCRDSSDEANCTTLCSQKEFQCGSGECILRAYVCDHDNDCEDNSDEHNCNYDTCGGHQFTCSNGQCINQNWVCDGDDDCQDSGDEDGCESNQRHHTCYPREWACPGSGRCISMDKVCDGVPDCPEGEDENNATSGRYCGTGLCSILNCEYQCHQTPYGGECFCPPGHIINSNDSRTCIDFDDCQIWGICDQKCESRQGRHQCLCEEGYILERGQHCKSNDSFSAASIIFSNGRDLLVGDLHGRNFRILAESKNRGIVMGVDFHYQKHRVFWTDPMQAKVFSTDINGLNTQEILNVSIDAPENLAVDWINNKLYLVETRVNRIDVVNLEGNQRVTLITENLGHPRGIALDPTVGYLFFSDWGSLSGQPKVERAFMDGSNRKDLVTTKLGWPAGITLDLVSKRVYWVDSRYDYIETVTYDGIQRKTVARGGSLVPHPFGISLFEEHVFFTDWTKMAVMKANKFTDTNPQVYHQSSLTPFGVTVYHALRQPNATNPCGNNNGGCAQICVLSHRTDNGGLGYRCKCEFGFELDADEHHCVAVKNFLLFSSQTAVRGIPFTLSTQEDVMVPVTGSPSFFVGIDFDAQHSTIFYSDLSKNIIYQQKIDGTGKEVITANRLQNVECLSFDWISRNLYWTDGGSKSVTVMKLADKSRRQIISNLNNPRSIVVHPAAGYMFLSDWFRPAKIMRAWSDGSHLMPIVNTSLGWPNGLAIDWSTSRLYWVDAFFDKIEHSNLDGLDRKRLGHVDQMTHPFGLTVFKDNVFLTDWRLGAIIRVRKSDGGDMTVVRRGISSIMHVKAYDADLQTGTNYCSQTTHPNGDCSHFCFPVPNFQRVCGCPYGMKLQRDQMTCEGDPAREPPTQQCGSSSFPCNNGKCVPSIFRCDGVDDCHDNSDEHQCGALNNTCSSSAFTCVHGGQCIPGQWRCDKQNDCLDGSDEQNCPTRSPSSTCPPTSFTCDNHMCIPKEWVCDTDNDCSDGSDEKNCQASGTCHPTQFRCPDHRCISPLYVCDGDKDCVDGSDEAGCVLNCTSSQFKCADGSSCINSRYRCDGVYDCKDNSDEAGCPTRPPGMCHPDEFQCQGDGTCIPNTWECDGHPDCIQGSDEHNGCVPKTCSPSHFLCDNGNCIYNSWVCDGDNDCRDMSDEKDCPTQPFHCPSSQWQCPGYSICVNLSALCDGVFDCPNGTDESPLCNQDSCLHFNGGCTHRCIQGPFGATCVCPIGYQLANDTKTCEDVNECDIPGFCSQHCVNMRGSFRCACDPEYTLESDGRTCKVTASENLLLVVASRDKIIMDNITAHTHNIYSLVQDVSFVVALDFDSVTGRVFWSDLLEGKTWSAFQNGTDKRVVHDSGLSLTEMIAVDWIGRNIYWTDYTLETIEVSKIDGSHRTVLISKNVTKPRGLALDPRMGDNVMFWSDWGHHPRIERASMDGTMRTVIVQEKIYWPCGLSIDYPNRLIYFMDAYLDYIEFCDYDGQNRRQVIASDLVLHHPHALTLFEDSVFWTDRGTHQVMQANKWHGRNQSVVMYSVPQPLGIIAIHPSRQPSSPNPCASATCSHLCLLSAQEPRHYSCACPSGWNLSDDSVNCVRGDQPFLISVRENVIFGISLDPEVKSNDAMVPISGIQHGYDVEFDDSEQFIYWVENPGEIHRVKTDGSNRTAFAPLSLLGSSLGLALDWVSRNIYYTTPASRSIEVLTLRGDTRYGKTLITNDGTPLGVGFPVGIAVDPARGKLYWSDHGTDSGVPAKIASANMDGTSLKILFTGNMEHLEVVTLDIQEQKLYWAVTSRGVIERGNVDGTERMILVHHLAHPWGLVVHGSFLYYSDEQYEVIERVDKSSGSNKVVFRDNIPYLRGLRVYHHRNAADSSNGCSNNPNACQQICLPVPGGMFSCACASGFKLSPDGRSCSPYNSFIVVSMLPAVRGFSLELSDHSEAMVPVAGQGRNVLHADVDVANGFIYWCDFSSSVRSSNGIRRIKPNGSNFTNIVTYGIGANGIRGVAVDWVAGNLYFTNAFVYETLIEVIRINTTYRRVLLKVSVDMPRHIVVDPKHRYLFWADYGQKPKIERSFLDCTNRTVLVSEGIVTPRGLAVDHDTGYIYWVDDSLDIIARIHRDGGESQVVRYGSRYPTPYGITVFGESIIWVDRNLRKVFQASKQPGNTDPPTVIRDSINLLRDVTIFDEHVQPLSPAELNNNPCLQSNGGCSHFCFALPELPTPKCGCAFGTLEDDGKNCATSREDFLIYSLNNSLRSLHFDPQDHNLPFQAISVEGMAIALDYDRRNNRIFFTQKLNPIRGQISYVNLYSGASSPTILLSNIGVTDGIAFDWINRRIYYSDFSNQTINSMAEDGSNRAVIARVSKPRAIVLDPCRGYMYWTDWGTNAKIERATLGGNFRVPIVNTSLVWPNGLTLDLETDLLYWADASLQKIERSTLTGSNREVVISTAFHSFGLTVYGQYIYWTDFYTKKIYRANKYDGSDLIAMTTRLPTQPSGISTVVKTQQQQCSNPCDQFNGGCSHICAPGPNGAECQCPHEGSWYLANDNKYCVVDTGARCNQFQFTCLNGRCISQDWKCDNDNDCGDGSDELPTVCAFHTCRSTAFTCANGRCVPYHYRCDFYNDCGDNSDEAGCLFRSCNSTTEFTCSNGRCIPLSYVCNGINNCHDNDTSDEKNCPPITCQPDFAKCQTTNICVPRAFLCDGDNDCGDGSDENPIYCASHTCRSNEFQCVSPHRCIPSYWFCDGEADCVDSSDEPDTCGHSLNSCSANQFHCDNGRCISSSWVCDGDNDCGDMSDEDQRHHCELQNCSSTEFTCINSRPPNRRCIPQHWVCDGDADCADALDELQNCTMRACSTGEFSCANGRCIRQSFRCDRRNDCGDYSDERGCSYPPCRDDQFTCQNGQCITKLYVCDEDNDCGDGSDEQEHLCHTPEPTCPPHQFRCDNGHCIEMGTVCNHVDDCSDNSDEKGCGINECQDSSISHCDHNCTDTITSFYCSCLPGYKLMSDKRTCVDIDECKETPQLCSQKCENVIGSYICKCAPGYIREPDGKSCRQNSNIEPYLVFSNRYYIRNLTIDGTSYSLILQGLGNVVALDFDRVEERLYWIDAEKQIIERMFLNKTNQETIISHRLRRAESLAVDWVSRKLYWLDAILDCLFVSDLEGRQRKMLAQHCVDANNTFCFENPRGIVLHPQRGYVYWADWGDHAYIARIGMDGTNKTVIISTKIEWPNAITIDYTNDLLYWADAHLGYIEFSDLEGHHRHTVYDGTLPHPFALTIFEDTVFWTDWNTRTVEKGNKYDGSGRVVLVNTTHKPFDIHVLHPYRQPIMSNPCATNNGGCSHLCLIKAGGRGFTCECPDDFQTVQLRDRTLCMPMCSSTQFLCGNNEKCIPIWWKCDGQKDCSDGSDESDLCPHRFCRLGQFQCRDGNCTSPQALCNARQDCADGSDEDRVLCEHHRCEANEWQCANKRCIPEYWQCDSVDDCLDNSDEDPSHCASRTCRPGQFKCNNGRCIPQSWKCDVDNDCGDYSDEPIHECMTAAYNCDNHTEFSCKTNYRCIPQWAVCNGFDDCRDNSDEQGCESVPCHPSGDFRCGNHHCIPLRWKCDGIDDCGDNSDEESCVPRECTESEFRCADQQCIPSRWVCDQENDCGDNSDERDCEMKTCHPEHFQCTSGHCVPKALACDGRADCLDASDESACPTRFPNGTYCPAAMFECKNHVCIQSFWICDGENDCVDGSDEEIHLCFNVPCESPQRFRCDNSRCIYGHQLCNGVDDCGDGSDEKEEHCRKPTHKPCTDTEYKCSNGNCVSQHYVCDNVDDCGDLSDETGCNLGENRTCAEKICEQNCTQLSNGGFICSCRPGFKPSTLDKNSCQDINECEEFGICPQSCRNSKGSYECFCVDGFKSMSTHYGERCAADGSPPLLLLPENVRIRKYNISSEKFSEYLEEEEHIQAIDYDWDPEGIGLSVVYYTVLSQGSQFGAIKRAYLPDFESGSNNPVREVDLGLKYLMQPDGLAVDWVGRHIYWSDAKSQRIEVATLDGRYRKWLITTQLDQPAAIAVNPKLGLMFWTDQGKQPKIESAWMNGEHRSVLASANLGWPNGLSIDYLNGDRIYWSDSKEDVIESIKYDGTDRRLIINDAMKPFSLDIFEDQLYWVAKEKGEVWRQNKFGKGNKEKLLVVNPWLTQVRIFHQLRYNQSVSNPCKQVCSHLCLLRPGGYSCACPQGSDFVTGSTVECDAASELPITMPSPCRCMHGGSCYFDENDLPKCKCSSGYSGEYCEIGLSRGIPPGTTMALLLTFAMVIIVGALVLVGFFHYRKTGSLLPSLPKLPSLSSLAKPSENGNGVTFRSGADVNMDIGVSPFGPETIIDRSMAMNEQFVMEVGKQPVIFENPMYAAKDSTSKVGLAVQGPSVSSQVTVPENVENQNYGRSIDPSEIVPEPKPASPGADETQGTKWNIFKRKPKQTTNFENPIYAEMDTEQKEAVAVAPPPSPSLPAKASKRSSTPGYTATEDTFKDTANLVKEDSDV

B1: vitamin D binding protein (VDBP), endogenous (ligand, UniProt P21614 17-476)
chain: LERGRDYEKDKVCNELAMLGKEDFRSLSLILYSRKFSSSTFEQVNQLVKEVVSLTEECCAEGADPTCYDTRTSELSVKSCESDAPFPVHPGTPECCTKEGLERKLCMAALSHQPQEFPTYVEPTNDEICEAFRRDPKGFADQFLYEYSSNYGQAPLPLLVAYTKNYLSMVGSCCTSANPTVCFVKERLQMKHLSLLTTMSNRVCSQYAAYGKEKSRLSHLIKLAQKVPTANLENVLPLAEDFTEILSRCCESTSEDCMASELPEHTIKICQNLSKKNSKFEECCQENTPMNIFMCTYFMPAAEPLQLPAIKLPTGKDLCGQSTTQAMDQYTFELSRRTQVPEVFLSKVLEPTLKTLRECCDTQDSVACFSTQSPLLKRQLTSFIEKGQEMCADYSENTFTEYKKKLAERLRTKTPNTSPAELKDMVEKHSDFASKCCSINSPPLYCSSQIDAEMIDTLQS

Key:
[1] = target: T1, glutathione S-transferase (GST)-labeled VDBP protein; test: pull-down; GST-labeled VDBP protein as bait, primary mouse neuron lysate; only the target purified
[2] = target: megalin (low-density-lipoprotein-receptor-related protein 2, LRP2), neuronal receptor (mouse (endogenous in primary mouse neurons)) (UniProt A2ARV4); test: proximity ligation; endogenous VDBP and megalin on MAP2-positive primary mouse neurons

Molecule	binding [1]	binding [2]
megalin (low-density-lipoprotein-receptor-related protein 2, LRP2), neuronal receptor (from UniProt A2ARV4 26-4660)	binds	–
B1	–	binds

From publication PMC11809382
